Source: patent US7659244B2 (Quest Pharmatech, Inc., priority 2004, dated 2010)

Assay: general procedure: solution-phase peptide synthesis; DCC/HOBt
Conditions: conjugation step

Substance | conjugation yield [%]
Rapamycin-42-O-ester-(NH-D-Ala-D-Leu-L-Ile-S-Phe-CH2OH) | 11
Rapamycin-42-O-ester-(NH-L-Ala-L-Leu-L-Ile-D-Phe-CH2OH) | 10
